doi:10.1101/2025.01.05.631328 (bioRxiv, 2025)

Chains of the proteins cited; added tags and fusions are not shown.
UniProt P09874: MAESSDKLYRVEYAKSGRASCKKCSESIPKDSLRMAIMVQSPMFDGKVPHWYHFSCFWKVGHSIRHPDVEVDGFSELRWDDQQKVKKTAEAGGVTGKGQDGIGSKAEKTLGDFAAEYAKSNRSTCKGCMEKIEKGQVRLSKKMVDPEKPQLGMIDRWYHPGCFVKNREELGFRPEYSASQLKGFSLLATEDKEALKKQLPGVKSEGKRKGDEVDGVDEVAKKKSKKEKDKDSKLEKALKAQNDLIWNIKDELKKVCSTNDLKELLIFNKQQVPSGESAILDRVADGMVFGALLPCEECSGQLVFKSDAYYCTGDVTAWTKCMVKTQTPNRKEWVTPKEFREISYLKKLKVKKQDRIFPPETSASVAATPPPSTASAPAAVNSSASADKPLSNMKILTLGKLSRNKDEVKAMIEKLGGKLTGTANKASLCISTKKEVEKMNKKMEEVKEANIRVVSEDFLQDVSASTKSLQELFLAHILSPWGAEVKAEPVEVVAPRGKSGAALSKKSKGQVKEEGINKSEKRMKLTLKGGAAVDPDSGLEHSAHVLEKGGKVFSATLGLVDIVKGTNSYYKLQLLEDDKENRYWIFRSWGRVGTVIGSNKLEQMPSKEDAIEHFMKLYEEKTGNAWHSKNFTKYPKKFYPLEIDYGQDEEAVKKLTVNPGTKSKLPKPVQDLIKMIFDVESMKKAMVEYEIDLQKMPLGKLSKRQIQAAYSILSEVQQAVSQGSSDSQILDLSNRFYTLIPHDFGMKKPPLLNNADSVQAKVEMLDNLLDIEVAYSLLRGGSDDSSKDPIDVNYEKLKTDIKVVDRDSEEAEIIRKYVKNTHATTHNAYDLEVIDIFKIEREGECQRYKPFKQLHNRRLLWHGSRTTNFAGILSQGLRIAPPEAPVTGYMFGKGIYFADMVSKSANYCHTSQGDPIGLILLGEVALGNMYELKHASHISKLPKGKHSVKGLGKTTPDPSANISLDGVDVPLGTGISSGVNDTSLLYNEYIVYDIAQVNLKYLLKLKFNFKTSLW

How the values were obtained:
[1] = target: T1, Flag-MISO (Mitochondrial Inner membrane Subdomain Organizer, human C3orf33, long isoform) (human) (UniProt Q6P1S2); assay: affinity purification with mass spectrometry
T1 sequence: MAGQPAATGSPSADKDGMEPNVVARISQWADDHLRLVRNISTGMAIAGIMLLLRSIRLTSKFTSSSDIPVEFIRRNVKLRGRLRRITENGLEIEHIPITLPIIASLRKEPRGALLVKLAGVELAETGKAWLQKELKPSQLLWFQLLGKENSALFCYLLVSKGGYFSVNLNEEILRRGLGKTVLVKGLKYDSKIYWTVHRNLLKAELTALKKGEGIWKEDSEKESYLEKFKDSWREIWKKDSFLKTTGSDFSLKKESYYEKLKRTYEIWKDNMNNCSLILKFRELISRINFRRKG

[2] = target: T2, MISO-Flag (Mitochondrial Inner membrane Subdomain Organizer, human C3orf33, long isoform), in HEK293T (human) (UniProt Q6P1S2); assay: affinity purification with mass spectrometry
T2 sequence: T1 sequence

- binding [1]: binds
- binding [2]: binds
Molecule: poly ADP-ribose polymerase 1 (PARP1) (from UniProt P09874 1-1014)

- binding [1]: binds
- binding [2]: binds
B1: single-stranded DNA-binding protein 1 (SSBP1) (protein, UniProt Q04837 17-148)
chain: ESETTTSLVLERSLNRVHLLGRVGQDPVLRQVEGKNPVTIFSLATNEMWRSGDSEVYQLGDVSQKTTWHRISVFRPGLRDVAYQYVKKGSRIYLEGKIDYGEYMDKNNVRRQATTIIADNIIFLSDQTKEKE

No constants are given. Whether binding was seen depends on the method and setting. Binding seen in cells or lysates may run through a third protein. Here binding means that the protein was enriched with, or labelled near, the bait; the list need not be complete. Tags and fused reporters may be left off the sequences shown. One block for each molecule: values may come before it.
